Measurements taken from the supplement of paper PMC12823440, “Inhibitors supercharge kinase turnover through native proteolytic circuits” (Nature, 2025).
Counter-ions that a name gives are not always drawn. The list shows a part of the results. Hit calls seldom repeat between salt and free forms of one compound.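 In K562 cells expressing nanoluciferase-fused kinases, luminescence was recorded at 4 h intervals between 2 and 18 h, normalized as percent of control with DMSO at 100% and a positive control at 0%. A significant (2 sigma) signal drop marks a time point as decreased. The authors' rule for a hit is not shown and takes in more than the number of time points.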

Sequences of proteins named here, by UniProt entry; tags and fusion partners are left off. A change or cut given only in a name is not applied to a line headed by its entry.
UniProt P00519, whole entry: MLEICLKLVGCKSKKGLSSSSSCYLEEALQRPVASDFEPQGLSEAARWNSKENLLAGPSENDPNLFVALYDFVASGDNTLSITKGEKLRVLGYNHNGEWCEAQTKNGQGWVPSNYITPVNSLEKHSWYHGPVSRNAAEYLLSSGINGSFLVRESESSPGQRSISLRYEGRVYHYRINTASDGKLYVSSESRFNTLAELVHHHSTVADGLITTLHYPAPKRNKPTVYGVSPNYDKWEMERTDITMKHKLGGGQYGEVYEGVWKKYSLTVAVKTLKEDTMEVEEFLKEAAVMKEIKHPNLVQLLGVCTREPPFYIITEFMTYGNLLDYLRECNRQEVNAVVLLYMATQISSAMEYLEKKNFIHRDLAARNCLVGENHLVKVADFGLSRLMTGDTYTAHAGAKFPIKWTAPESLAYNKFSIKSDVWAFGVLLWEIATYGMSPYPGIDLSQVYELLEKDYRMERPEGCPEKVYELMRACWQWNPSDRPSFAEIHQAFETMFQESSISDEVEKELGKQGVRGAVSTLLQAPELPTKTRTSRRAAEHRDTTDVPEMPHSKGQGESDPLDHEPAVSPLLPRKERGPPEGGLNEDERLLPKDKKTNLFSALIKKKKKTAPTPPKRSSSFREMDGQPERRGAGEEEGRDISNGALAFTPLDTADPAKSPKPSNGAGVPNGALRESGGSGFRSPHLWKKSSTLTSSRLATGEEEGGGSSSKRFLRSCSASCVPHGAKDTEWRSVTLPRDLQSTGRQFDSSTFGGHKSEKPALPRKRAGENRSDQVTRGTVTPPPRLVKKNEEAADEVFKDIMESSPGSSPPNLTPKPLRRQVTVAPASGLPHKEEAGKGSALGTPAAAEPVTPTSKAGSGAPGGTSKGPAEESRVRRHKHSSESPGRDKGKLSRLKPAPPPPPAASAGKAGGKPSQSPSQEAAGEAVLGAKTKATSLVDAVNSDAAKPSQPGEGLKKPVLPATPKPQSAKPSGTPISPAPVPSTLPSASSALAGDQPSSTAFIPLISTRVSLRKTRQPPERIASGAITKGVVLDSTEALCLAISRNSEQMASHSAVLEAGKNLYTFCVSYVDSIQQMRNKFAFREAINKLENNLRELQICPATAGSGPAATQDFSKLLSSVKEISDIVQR
UniProt P31749: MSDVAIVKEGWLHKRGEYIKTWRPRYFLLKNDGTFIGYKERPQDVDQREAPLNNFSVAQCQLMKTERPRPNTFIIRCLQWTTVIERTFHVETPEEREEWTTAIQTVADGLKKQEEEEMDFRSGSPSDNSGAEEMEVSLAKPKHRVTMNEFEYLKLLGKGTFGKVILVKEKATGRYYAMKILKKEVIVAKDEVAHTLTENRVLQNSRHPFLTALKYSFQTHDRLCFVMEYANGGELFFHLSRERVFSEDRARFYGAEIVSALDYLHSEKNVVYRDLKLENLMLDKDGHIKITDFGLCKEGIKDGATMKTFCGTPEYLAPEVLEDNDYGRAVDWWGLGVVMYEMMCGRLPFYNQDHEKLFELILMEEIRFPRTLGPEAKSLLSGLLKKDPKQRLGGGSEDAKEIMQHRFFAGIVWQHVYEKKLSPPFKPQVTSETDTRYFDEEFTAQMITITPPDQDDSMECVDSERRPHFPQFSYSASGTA
UniProt Q9UM73: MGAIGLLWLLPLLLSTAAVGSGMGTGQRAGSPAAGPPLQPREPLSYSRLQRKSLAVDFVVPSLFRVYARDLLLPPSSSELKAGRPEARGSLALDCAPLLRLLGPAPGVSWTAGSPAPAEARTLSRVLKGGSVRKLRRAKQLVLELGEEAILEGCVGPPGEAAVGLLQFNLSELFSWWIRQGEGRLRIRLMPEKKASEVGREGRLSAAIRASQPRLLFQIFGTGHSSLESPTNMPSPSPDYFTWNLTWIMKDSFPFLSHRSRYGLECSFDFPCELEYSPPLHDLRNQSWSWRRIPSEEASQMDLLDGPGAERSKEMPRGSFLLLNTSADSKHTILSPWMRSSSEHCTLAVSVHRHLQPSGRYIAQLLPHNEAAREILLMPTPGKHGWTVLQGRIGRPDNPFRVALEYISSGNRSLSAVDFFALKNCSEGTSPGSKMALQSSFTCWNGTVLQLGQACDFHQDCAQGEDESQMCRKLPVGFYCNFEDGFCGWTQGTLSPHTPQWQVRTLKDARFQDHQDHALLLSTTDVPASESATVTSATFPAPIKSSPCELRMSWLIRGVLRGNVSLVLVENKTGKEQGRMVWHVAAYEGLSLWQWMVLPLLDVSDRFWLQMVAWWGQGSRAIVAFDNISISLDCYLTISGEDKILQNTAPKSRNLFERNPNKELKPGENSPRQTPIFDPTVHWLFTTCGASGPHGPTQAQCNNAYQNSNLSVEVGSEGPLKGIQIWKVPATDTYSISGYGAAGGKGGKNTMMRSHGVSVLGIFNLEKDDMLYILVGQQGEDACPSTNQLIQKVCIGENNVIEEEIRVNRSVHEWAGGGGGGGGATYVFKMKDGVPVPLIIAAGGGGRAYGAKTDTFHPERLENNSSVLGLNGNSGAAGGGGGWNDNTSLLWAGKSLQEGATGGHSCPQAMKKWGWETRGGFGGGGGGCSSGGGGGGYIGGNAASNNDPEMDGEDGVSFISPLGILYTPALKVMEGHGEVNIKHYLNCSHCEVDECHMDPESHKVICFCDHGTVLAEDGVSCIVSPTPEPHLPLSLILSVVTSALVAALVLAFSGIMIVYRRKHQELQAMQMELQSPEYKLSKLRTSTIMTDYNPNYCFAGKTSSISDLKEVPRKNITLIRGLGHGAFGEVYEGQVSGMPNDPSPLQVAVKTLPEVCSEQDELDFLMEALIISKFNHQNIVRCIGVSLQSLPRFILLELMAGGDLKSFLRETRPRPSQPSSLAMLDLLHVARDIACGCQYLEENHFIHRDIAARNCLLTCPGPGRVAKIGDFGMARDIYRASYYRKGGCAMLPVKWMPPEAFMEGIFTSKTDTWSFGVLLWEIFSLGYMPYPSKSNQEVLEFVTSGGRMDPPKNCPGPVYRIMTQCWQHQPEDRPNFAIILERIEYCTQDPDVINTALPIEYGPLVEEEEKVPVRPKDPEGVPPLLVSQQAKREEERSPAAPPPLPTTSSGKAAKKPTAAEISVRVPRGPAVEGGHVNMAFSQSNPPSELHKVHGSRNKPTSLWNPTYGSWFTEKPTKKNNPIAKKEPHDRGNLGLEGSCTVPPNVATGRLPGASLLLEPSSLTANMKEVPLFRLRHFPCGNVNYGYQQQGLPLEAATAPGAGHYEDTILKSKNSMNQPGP
UniProt O14965: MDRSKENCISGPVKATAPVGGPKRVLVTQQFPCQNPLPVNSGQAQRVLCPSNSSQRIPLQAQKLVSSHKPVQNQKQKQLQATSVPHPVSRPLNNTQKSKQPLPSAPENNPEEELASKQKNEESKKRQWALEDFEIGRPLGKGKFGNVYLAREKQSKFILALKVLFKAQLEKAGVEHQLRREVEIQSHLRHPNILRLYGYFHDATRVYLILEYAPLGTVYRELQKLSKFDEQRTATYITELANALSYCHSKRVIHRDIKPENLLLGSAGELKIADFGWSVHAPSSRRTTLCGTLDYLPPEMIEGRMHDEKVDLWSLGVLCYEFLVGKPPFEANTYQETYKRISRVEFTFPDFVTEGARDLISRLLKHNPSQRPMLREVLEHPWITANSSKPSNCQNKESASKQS
UniProt Q96GD4, whole entry: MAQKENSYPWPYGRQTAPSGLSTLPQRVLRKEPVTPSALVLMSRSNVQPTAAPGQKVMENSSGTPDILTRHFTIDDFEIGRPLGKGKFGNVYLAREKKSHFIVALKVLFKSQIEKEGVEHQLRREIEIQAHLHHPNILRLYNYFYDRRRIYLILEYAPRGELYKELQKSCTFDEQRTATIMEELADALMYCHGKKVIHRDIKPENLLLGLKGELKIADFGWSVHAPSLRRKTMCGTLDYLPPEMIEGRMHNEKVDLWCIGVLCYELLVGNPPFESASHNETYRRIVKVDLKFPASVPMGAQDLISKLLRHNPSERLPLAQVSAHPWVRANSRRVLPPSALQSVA
UniProt Q9UQB9: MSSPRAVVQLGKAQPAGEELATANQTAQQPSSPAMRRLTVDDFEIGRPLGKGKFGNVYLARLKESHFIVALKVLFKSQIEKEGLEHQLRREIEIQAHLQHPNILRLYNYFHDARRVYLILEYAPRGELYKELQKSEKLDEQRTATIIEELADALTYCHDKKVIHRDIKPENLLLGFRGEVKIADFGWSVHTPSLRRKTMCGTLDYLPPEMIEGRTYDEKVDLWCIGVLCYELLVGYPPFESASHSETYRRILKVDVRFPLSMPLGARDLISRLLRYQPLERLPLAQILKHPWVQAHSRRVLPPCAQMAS
UniProt P51451: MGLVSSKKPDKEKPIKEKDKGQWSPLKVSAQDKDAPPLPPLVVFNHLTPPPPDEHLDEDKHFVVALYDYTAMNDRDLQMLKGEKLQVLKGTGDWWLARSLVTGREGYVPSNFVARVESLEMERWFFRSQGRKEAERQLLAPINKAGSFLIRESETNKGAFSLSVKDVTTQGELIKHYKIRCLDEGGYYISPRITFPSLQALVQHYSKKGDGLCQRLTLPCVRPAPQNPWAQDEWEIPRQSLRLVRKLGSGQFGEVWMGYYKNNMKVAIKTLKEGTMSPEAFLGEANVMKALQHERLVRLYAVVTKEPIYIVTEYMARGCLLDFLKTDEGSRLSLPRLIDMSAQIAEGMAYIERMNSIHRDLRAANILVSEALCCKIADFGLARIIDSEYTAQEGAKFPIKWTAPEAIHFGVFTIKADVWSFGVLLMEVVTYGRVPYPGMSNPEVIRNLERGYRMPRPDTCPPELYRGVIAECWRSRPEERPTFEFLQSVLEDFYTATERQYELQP
UniProt P51813: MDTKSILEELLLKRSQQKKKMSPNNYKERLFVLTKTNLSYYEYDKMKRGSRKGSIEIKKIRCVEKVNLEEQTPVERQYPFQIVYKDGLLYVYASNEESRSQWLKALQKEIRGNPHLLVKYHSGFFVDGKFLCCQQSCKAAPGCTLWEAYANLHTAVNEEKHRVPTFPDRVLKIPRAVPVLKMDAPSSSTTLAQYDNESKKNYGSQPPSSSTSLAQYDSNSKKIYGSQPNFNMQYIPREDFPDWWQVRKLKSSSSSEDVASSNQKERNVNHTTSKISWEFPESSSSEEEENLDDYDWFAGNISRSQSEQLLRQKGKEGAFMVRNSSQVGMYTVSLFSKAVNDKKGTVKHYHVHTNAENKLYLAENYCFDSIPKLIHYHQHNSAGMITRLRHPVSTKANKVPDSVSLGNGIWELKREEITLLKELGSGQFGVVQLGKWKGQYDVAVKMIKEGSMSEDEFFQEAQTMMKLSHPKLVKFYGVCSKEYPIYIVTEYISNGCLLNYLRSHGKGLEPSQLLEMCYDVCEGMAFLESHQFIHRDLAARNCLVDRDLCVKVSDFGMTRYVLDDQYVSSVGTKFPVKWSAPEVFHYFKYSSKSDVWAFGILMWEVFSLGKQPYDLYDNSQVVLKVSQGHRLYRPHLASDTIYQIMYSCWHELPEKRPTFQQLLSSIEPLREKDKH
UniProt P15056, whole entry, looked up: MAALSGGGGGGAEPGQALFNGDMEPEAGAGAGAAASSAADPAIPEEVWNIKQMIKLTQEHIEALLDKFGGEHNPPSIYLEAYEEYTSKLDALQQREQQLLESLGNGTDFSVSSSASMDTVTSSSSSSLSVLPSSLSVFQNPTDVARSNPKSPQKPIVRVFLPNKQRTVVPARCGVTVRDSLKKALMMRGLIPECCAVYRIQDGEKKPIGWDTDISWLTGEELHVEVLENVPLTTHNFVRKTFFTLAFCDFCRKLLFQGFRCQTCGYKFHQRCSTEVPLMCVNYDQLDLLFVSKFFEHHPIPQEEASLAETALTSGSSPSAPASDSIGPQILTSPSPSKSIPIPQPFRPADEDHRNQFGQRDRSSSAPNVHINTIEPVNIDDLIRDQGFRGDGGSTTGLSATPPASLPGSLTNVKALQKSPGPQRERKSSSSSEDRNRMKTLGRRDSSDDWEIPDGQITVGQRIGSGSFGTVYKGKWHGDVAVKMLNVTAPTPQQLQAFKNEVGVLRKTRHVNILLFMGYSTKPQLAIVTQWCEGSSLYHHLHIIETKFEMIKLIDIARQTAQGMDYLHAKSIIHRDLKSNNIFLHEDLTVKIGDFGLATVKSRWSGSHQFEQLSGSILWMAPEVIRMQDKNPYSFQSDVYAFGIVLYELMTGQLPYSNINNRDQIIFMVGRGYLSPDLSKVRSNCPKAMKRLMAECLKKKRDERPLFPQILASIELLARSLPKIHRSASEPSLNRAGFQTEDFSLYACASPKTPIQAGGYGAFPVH

Experiments:
Experiment in all cases: kinase-Nluc reporter destabilization hit call (1 = scored as downregulated) (binary); higher = compound decreases kinase abundance
Conditions in all cases: K562; 2-18 h
ABL1 = ABL1 (UniProt P00519)
AKT1 = AKT1 (UniProt P31749)
ALK = ALK (UniProt Q9UM73)
ARAF = ARAF (UniProt P10398)
AURKA = AURKA (UniProt O14965)
AURKB = AURKB (UniProt Q96GD4)
AURKC = AURKC (UniProt Q9UQB9)
BLK = BLK (UniProt P51451)
BMX = BMX (UniProt P51813)
BRAF = BRAF (UniProt P15056)

Measured: kinase-Nluc reporter destabilization hit call

CCc1ccc(NC(=O)Nc2ccccc2)cc1 (10 µM)
inactive: ABL1 = 0 | AKT1 = 0 | ALK 0 | ARAF 0 | AURKA 0 | AURKB 0 | AURKC 0 | BLK 0 | BMX 0 | BRAF 0

Cc1cc(/C=C2\CC/C(=C\c3cc(C)c(O)c(C)c3)C2=O)cc(C)c1O [Pentagamavunon-1] (2.5 µM)
inactive: ABL1 = 0 | AKT1 = 0 | ALK 0 | ARAF 0 | AURKA 0 | AURKB 0 | AURKC 0 | BLK 0 | BMX 0 | BRAF 0

CN(C)CCCn1cc(C2=C(c3c[nH]c4ccccc34)C(=O)NC2=O)c2ccccc21 [Bisindolylmaleimide I] (2.5 µM)
inactive: ABL1 = 0 | AKT1 = 0 | ALK 0 | ARAF 0 | AURKA 0 | AURKB 0 | AURKC 0 | BLK 0 | BMX 0 | BRAF 0

CC(=O)Nc1nc(C)c(-c2cc3c(c(S(C)(=O)=O)c2)C(=O)N([C@@H](C)C2CC2)C3)s1 (2.5 µM)
inactive: ABL1 = 0 | AKT1 = 0 | ALK 0 | ARAF 0 | AURKA 0 | AURKB 0 | AURKC 0 | BLK 0 | BMX 0 | BRAF 0

O=C1C(=Cc2ccc(O)c(O)c2)Oc2ccccc21 (2.5 µM)
inactive: ABL1 = 0 | AKT1 = 0 | ALK 0 | ARAF 0 | AURKA 0 | AURKB 0 | AURKC 0 | BLK 0 | BMX 0 | BRAF 0

Cn1cc(-c2ccc3nnc(Sc4ccc5nn(C)cc5c4)n3n2)cn1 [c-Met inhibitor 1] (10 µM)
inactive: ABL1 = 0 | AKT1 = 0 | ALK 0 | ARAF 0 | AURKA 0 | AURKB 0 | AURKC 0 | BLK 0 | BMX 0 | BRAF 0

C[C@@]12CCc3occc3[C@H]1CC[C@@]13C[C@@H](CC[C@H]12)[C@@](O)(CO)C3 [Cafestol] (10 µM)
inactive: ABL1 = 0 | AKT1 = 0 | ALK 0 | ARAF 0 | AURKA 0 | AURKB 0 | AURKC 0 | BLK 0 | BMX 0 | BRAF 0

COc1ccc2c(c1)C[C@H](C(=O)Nc1ccc(-c3cn[nH]c3)cc1OCCN(C)C)CO2 [Chroman 1] (10 µM)
inactive: ABL1 = 0 | AKT1 = 0 | ALK 0 | ARAF 0 | AURKA 0 | AURKB 0 | AURKC 0 | BLK 0 | BMX 0 | BRAF 0

CC(C)(C)c1ccc(C(=O)Nc2cn3cc(-n4ccnc4)ccc3n2)cc1 (10 µM)
inactive: ABL1 = 0 | AKT1 = 0 | ALK 0 | ARAF 0 | AURKA 0 | AURKB 0 | AURKC 0 | BLK 0 | BMX 0 | BRAF 0

CCS(=O)(=O)c1ccc(Oc2cc(O[C@@H](C)CO)cc(C(=O)Nc3ccn(C)n3)c2)cn1 (10 µM)
inactive: ABL1 = 0 | AKT1 = 0 | ALK 0 | ARAF 0 | AURKA 0 | AURKB 0 | AURKC 0 | BLK 0 | BMX 0 | BRAF 0

CCCCNc1ncc2c(-c3ccc(CN4CCN(C)CC4)cc3)cn([C@H]3CC[C@H](O)CC3)c2n1 [UNC2025 (hydrochloride)] (2.5 µM)
inactive: ABL1 = 0 | AKT1 = 0 | ALK 0 | ARAF 0 | AURKA 0 | AURKB 0 | AURKC 0 | BLK 0 | BMX 0 | BRAF 0

O=C(Nc1nc2cccc(-c3ccc(CN4CCS(=O)(=O)CC4)cc3)n2n1)C1CC1 [Filgotinib] (2.5 µM)
inactive: ABL1 = 0 | AKT1 = 0 | ALK 0 | ARAF 0 | AURKA 0 | AURKB 0 | AURKC 0 | BLK 0 | BMX 0 | BRAF 0

Cc1cccc(Cn2nc(C)c3c(NC(=O)c4csc5c(N)ncnc45)cccc32)n1 (10 µM)
inactive: ABL1 = 0 | AKT1 = 0 | ALK 0 | ARAF 0 | AURKA 0 | AURKB 0 | AURKC 0 | BLK 0 | BMX 0 | BRAF 0

C[C@@H]1CN(CC(=O)Nc2ccc3c(c2)Cc2cccc(-c4cc(=O)cc(N5CCOCC5)o4)c2S3)C[C@H](C)O1 (2.5 µM)
inactive: ABL1 = 0 | AKT1 = 0 | ALK 0 | ARAF 0 | AURKA 0 | AURKB 0 | AURKC 0 | BLK 0 | BMX 0 | BRAF 0

CNS(=O)(=O)Nc1nccc(Cc2c(C)c3ccc(Oc4ncccn4)cc3oc2=O)c1F (10 µM)
inactive: ABL1 = 0 | AKT1 = 0 | ALK 0 | ARAF 0 | AURKA 0 | AURKB 0 | AURKC 0 | BLK 0 | BMX 0 | BRAF 0

O=C(c1ccc(NS(=O)(=O)c2cccc3cccnc23)cc1)N1CCN(CC2CC2)CC1 [Mitapivat] (10 µM)
inactive: ABL1 = 0 | AKT1 = 0 | ALK 0 | ARAF 0 | AURKA 0 | AURKB 0 | AURKC 0 | BLK 0 | BMX 0 | BRAF 0

C[C@@H](Nc1cc(F)cc(F)c1)c1cc(C(=O)N(C)C)cc2c(=O)cc(N3CCOCC3)oc12 (10 µM)
inactive: ABL1 = 0 | AKT1 = 0 | ALK 0 | ARAF 0 | AURKA 0 | AURKB 0 | AURKC 0 | BLK 0 | BMX 0 | BRAF 0

C[C@H](Nc1ccc2c(c1)OCCn1cc(N3C(=O)OC[C@H]3C(F)F)nc1-2)C(N)=O (10 µM)
inactive: ABL1 = 0 | AKT1 = 0 | ALK 0 | ARAF 0 | AURKA 0 | AURKB 0 | AURKC 0 | BLK 0 | BMX 0 | BRAF 0

O=S(=O)(c1cccc2c(Cl)cccc12)N1CCCNCC1 (10 µM)
inactive: ABL1 = 0 | AKT1 = 0 | ALK 0 | ARAF 0 | AURKA 0 | AURKB 0 | AURKC 0 | BLK 0 | BMX 0 | BRAF 0

O=C1c2c(O)cc(O)cc2O[C@H](c2cc(O)c(O)c(O)c2)[C@H]1O [Dihydromyricetin] (10 µM)
inactive: ABL1 = 0 | AKT1 = 0 | ALK 0 | ARAF 0 | AURKA 0 | AURKB 0 | AURKC 0 | BLK 0 | BMX 0 | BRAF 0

O=C(Nc1cc(Cl)cc(Cl)c1)Nc1cc(Cl)cc(Cl)c1 (10 µM)
inactive: ABL1 = 0 | AKT1 = 0 | ALK 0 | ARAF 0 | AURKA 0 | AURKB 0 | AURKC 0 | BLK 0 | BMX 0 | BRAF 0

Retrieved one by one from above (two):
C[C@H](Nc1ccc2c(c1)OCCn1cc(N3C(=O)OC[C@H]3C(F)F)nc1-2)C(N)=O (10 µM)
inactive: ABL1 = 0 | AKT1 = 0 | ALK 0 | ARAF 0 | AURKA 0 | AURKB 0 | AURKC 0 | BLK 0 | BMX 0 | BRAF 0

O=C1c2c(O)cc(O)cc2O[C@H](c2cc(O)c(O)c(O)c2)[C@H]1O [Dihydromyricetin] (10 µM)
inactive: ABL1 = 0 | AKT1 = 0 | ALK 0 | ARAF 0 | AURKA 0 | AURKB 0 | AURKC 0 | BLK 0 | BMX 0 | BRAF 0

Additional results follow:

CC(C)c1cnn2c(NCc3ccccc3)cc(NCCCCCCN)nc12 [BS-181 (hydrochloride)] (10 µM)
inactive: ABL1 = 0 | AKT1 = 0 | ALK 0 | ARAF 0 | AURKA 0 | AURKB 0 | AURKC 0 | BLK 0 | BMX 0 | BRAF 0

CC(C)n1nc(C#Cc2ccccc2)c2c(N)ncnc21 (10 µM)
inactive: ABL1 = 0 | AKT1 = 0 | ALK 0 | ARAF 0 | AURKA 0 | AURKB 0 | AURKC 0 | BLK 0 | BMX 0 | BRAF 0

Nc1n[nH]c(N)c1N=Nc1ccc(O)cc1 (10 µM)
inactive: ABL1 = 0 | AKT1 = 0 | ALK 0 | ARAF 0 | AURKA 0 | AURKB 0 | AURKC 0 | BLK 0 | BMX 0 | BRAF 0

CC(=O)Nc1nc(C)c(-c2ccc(Cl)c(S(=O)(=O)NCCO)c2)s1 (10 µM)
inactive: ABL1 = 0 | AKT1 = 0 | ALK 0 | ARAF 0 | AURKA 0 | AURKB 0 | AURKC 0 | BLK 0 | BMX 0 | BRAF 0

CC(C)n1cnnc1-c1cccc(NC(=O)c2cc3ccc(F)cc3[nH]2)n1 (2.5 µM)
inactive: ABL1 = 0 | AKT1 = 0 | ALK 0 | ARAF 0 | AURKA 0 | AURKB 0 | AURKC 0 | BLK 0 | BMX 0 | BRAF 0

CC[C@H](C)[C@H](NC(=O)[C@H](CCCCN)NC(=O)[C@H](CC(C)C)NC(=O)[C@@H]1CCCN1C(=O)[C@H](CCC(=O)O)NC(=O)[C@H](Cc1ccc(O)cc1)NC(=O)[C@@H](NC(=O)[C@H](CO)NC(=O)CNC(=O)[C@H](CO)NC(=O)[C@H](CCCN=C(N)N)NC(=O)[C@H](CCCCN)NC(=O)[C@@H](NC(=O)[C@@H](N)CCCN=C(N)N)[C@@H](C)O)C(C)C)C(=O)O [Malantide] (10 µM)
inactive: ABL1 = 0 | AKT1 = 0 | ALK 0 | ARAF 0 | AURKA 0 | AURKB 0 | AURKC 0 | BLK 0 | BMX 0 | BRAF 0

NC(=O)c1nc(-c2c(F)cccc2Cl)oc1Nc1ccc(C(=O)N2CCOCC2)cc1 (10 µM)
inactive: ABL1 = 0 | AKT1 = 0 | ALK 0 | ARAF 0 | AURKA 0 | AURKB 0 | AURKC 0 | BLK 0 | BMX 0 | BRAF 0

CS(=O)(=O)N1CCc2c(-c3cnc(N)nc3)nc(N3CCOCC3)nc21 (10 µM)
inactive: ABL1 = 0 | AKT1 = 0 | ALK 0 | ARAF 0 | AURKA 0 | AURKB 0 | AURKC 0 | BLK 0 | BMX 0 | BRAF 0
